No constants are given. Whether binding was seen depends on the method and setting. In cells and extracts the contact can be indirect. Where a sequence is shown, tags or fusion partners need not be part of it.
Target: T1, Flag-tagged TRF1, P54274
T1 chain: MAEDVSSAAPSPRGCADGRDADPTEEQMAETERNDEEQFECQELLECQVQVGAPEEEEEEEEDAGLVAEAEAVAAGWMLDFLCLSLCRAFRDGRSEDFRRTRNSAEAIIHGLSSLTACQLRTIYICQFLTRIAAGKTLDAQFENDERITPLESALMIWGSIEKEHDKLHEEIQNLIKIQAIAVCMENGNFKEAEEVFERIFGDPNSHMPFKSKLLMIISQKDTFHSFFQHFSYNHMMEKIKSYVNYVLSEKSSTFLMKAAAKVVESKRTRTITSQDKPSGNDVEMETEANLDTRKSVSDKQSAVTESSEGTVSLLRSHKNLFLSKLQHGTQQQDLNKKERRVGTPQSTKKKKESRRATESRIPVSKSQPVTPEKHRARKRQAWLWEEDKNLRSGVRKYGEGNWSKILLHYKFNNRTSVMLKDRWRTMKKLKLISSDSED
Assay: co-IP; lysates of BJ^T cells stably expressing Flag-tagged vector, TRF1 or TRF1 fusion proteins; NETN lysis buffer; anti-Flag agarose beads, 4 °C, 30 min; Western blot for endogenous TRIM28; also done after Benzonase treatment of the lysates
Conditions: remark: other sources report otherwise

- binding: no binding
B1: TRIM28 (Tripartite motif-containing 28), endogenous, Q13263 1-835 (protein)
chain: MAASAAAASAAAASAASGSPGPGEGSAGGEKRSTAPSAAASASASAAASSPAGGGAEALELLEHCGVCRERLRPEREPRLLPCLHSACSACLGPAAPAAANSSGDGGAAGDGTVVDCPVCKQQCFSKDIVENYFMRDSGSKAATDAQDANQCCTSCEDNAPATSYCVECSEPLCETCVEAHQRVKYTKDHTVRSTGPAKSRDGERTVYCNVHKHEPLVLFCESCDTLTCRDCQLNAHKDHQYQFLEDAVRNQRKLLASLVKRLGDKHATLQKSTKEVRSSIRQVSDVQKRVQVDVKMAILQIMKELNKRGRVLVNDAQKVTEGQQERLERQHWTMTKIQKHQEHILRFASWALESDNNTALLLSKKLIYFQLHRALKMIVDPVEPHGEMKFQWDLNAWTKSAEAFGKIVAERPGTNSTGPAPMAPPRAPGPLSKQGSGSSQPMEVQEGYGFGSGDDPYSSAEPHVSGVKRSRSGEGEVSGLMRKVPRVSLERLDLDLTADSQPPVFKVFPGSTTEDYNLIVIERGAAAAATGQPGTAPAGTPGAPPLAGMAIVKEEETEAAIGAPPTATEGPETKPVLMALAEGPGAEGPRLASPSGSTSSGLEVVAPEGTSAPGGGPGTLDDSATICRVCQKPGDLVMCNQCEFCFHLDCHLPALQDVPGEEWSCSLCHVLPDLKEEDGSLSLDGADSTGVVAKLSPANQRKCERVLLALFCHEPCRPLHQLATDSTFSLDQPGGTLDLTLIRARLQEKLSPPYSSPQEFAQDVGRMFKQFNKLTEDKADVQSIIGLQRFFETRMNEAFGDTKFSAVLVEPPPMSLPGAGLSSQELSGGPGDGP

Reference: PMC13187458
